These are yes or no findings as the source states them, for the method shown. In cells and extracts the contact can be indirect. A yes stands for co-enrichment or nearness to the bait. Other partners may have been found.
B1: up-frameshift protein 1 (UPF1), endogenous (protein, UniProt Q92900 1-1129)
chain: MSVEAYGPSSQTLTFLDTEEAELLGADTQGSEFEFTDFTLPSQTQTPPGGPGGPGGGGAGGPGGAGAGAAAGQLDAQVGPEGILQNGAVDDSVAKTSQLLAELNFEEDEEDTYYTKDLPIHACSYCGIHDPACVVYCNTSKKWFCNGRGNTSGSHIVNHLVRAKCKEVTLHKDGPLGETVLECYNCGCRNVFLLGFIPAKADSVVVLLCRQPCASQSSLKDINWDSSQWQPLIQDRCFLSWLVKIPSEQEQLRARQITAQQINKLEELWKENPSATLEDLEKPGVDEEPQHVLLRYEDAYQYQNIFGPLVKLEADYDKKLKESQTQDNITVRWDLGLNKKRIAYFTLPKTDSGNEDLVIIWLRDMRLMQGDEICLRYKGDLAPLWKGIGHVIKVPDNYGDEIAIELRSSVGAPVEVTHNFQVDFVWKSTSFDRMQSALKTFAVDETSVSGYIYHKLLGHEVEDVIIKCQLPKRFTAQGLPDLNHSQVYAVKTVLQRPLSLIQGPPGTGKTVTSATIVYHLARQGNGPVLVCAPSNIAVDQLTEKIHQTGLKVVRLCAKSREAIDSPVSFLALHNQIRNMDSMPELQKLQQLKDETGELSSADEKRYRALKRTAERELLMNADVICCTCVGAGDPRLAKMQFRSILIDESTQATEPECMVPVVLGAKQLILVGDHCQLGPVVMCKKAAKAGLSQSLFERLVVLGIRPIRLQVQYRMHPALSAFPSNIFYEGSLQNGVTAADRVKKGFDFQWPQPDKPMFFYVTQGQEEIASSGTSYLNRTEAANVEKITTKLLKAGAKPDQIGIITPYEGQRSYLVQYMQFSGSLHTKLYQEVEIASVDAFQGREKDFIILSCVRANEHQGIGFLNDPRRLNVALTRARYGVIIVGNPKALSKQPLWNHLLNYYKEQKVLVEGPLNNLRESLMQFSKPRKLVNTINPGARFMTTAMYDAREAIIPGSVYDRSSQGRPSSMYFQTHDQIGMISAGPSHVAAMNIPIPFNLVMPPMPPPGYFGQANGPAAGRGTPKGKTGRGGRQKNRFGLPGPSQTNLPNSQASQDVASQPFSQGALTQGYISMSQPSQMSQPGLSQPELSQDSYLGDEFKSQIDVALSQDSTYQGERAYQHGGVTGLSQY
B2: UPF3B, endogenous (protein, UniProt Q9BZI7 1-483)
chain: MKEEKEHRPKEKRVTLLTPAGATGSGGGTSGDSSKGEDKQDRNKEKKEALSKVVIRRLPPTLTKEQLQEHLQPMPEHDYFEFFSNDTSLYPHMYARAYINFKNQEDIILFRDRFDGYVFLDNKGQEYPAIVEFAPFQKAAKKKTKKRDTKVGTIDDDPEYRKFLESYATDNEKMTSTPETLLEEIEAKNRELIAKKTTPLLSFLKNKQRMREEKREERRRREIERKRQREEERRKWKEEEKRKRKDIEKLKKIDRIPERDKLKDEPKIKVHRFLLQAVNQKNLLKKPEKGDEKELDKREKAKKLDKENLSDERASGQSCTLPKRSDSELKDEKPKRPEDESGRDYREREREYERDQERILRERERLKRQEEERRRQKERYEKEKTFKRKEEEMKKEKDTLRDKGKKAESTESIGSSEKTEKKEEVVKRDRIRNKDRPAMQLYQPGARSRNRLCPPDDSTKSGDSAAERKQESGISHRKEGGEE

Key:
[1] = target: French Polynesian ZIKV capsid (H/PF/2013), C-terminal 2xStrep II tag (Zika virus (French Polynesian 2013 strain H/PF/2013, Asian lineage)); assay: affinity purification with mass spectrometry; 2xStrep II-tagged capsid expressed in HEK293T; clarified lysates on Strep-Tactin Superflow overnight at 4°C; eluted with desthiobiotin; LC-MS/MS, scored with SAINTq against GFP and empty vector
[2] = target: Ugandan ZIKV capsid (MR 766), C-terminal 2xStrep II tag (Zika virus (Ugandan 1947 strain MR 766, African lineage)); assay: as above

Row | Binder | binding [1] | binding [2]
1 | B1 | binds | binds
2 | B2 | binds | binds

Source: publication PMC6222128
